From US5134067

System: RleAI type II restriction endonuclease (Rhizobium leguminosarum DSM 5629)
Test: enzyme reaction in vitro
Settings: lambda DNA cleaved; 10 mM Tris-HCl pH 7.5, 10 mM MgCl2, 1 mM DTE final, 30 C, 1 h; 1 U cleaves 1 µg lambda DNA in 1 h in 25 µl; purified native protein

CCCACA (double strand) [RleAI recognition sequence CCCACA(N)12/9 in lambda DNA]
activity on this sequence: active

Construct, isoform or probe ends are uncertain for at least one entry.
